# Publication PMC12431657, “Discovery and mechanistic insights of dibenzoylmethane as a broad spectrum inhibitor of coronavirus” (PLOS Pathogens, 2025)
# Counter-ions that a name gives are not always drawn. Like-named read-outs stand apart in the source and are kept apart here. Hit rate of the full screen: of about 3,300 compounds, about 60 (2%) showed an effect of 50% or more. The list shows a part of the results.
# System: HCoV-OC43
# Parameters: species or system RD; HTS, protection from HCoV-OC43 induced cell death, luminescent cell viability (CellCounting-Lite 2.0), inhibition rate
# Details: 24 h post infection, 1 h compound pre-incubation, 10 µM, inhibitor
SMILES,OC43 Inhibition rate [%],"OC43 Inhibition rate (OC43 Inhibition rate, 24 h) [%]"
OCc1c[nH]c2ccccc12 [Indole-3-carbinol],2.4,
COc1cc2ccc(=O)oc2cc1O[C@@H]1O[C@H](CO)[C@@H](O)[C@H](O)[C@H]1O [Scopolin],9,
O=C(/C=C/c1ccc(O)c2oc(-c3ccc(O)c(O)c3)cc12)O[C@H](Cc1ccc(O)c(O)c1)C(=O)O [Salvianolic acid C],0.9,
O=C(/C=C/c1ccc(O)cc1)c1ccc(O)cc1O [Isoliquiritigenin],-0.5,
NCC(O)CCC(N)C(=O)O (racemic) [DL-5-Hydroxylysine (hydrochloride)],2.4,
COc1c2c(cc3oc(CO)cc(=O)c13)O[C@H](C(C)(C)O)C2 [Cimifugin],0.3,
Cc1ccc2oc(-c3ccccc3)cc(=O)c2c1 [6-Methylflavone],5.1,
CC1=C(C)C(=O)O[C@@H]([C@](C)(O)[C@H]2CC[C@H]3[C@@H]4[C@@H]5O[C@@H]5[C@@]5(O)CC=CC(=O)[C@]5(C)[C@H]4CC[C@]23C)C1 [Withanolide A],1.1,
CCOC(=O)/C=C/c1ccc(O)c(O)c1 [Ethyl Caffeate],0.4,
COc1cc([C@@H]2[C@H]3CO[C@@]4(O)C(=O)[C@@H]2C=C([C@H]2Oc5cc(O)cc(O)c5C(=O)[C@@H]2O)[C@@H]34)ccc1O [Silydianin],-0.1,
CCCCCCCC/C=C\CCCCCCCC(=O)O [Oleic acid],,-2.1
COc1cc([C@@H]2OC[C@@H]3[C@H]2CO[C@H]3c2cc(OC)c(O[C@@H]3O[C@H](CO)[C@@H](O)[C@H](O)[C@H]3O)c(OC)c2)cc(OC)c1O [Acanthoside B],-0.4,
COc1cc(/C=C/C(=O)OC[C@H]2O[C@H](O[C@]3(CO)O[C@H](CO)[C@@H](O)[C@@H]3OC(=O)/C=C/c3cc(OC)c(OC)c(OC)c3)[C@H](O)[C@@H](O)[C@@H]2O)cc(OC)c1O [Tenuifoliside C],-0.7,
Cc1cn([C@@H]2O[C@H](CO)[C@@H](O)[C@H]2O)c(=O)nc1N [5-Methylcytidine],-1.4,
COc1cc([C@@H]2c3cc4c(cc3C[C@H]3COC(=O)[C@@H]32)OCO4)cc(OC)c1OC [Deoxypodophyllotoxin],1,
O=C(O)CCCCc1ccccc1 [5-Phenylvaleric acid],0.2,
C[C@H](CCC(=O)O)[C@H]1CC[C@H]2[C@@H]3[C@@H](O)C[C@@H]4C[C@H](O)CC[C@]4(C)[C@H]3CC[C@]12C [Ursodeoxycholic acid],3.5,
Cc1cc(C(=O)O)ccc1O [4-Hydroxy-3-methylbenzoic acid],-0.1,
c1ccc(CNc2ncnc3[nH]cnc23)cc1 [6-Benzylaminopurine],0.2,
CC(=O)O[C@H]1C(=O)[C@@]2(C)[C@H]([C@H](OC(=O)c3ccccc3)[C@]3(O)C[C@H](OC(=O)[C@H](O)[C@@H](NC(=O)c4ccccc4)c4ccccc4)C(C)=C1C3(C)C)[C@]1(OC(C)=O)CO[C@@H]1C[C@@H]2O [7-epi-Taxol],,24.1

SMILES,OC43 Inhibition rate [%],"OC43 Inhibition rate (OC43 Inhibition rate, 24 h) [%]"
COC(=O)Cc1ccc(O)cc1 [Methyl 4-hydroxyphenylacetate],-0.4,
CC(=O)OCCC(C)CCC=C(C)C (stereo not shown) [Citronellyl acetate],0.5,
Nc1nc2c(ncn2[C@H]2C[C@H](O)[C@@H](CO)O2)c(=O)[nH]1 [2'-Deoxyguanosine monohydrate],,-0.2
CN(C)C(N)=NCCC[C@H](N)C(=O)O [Asymmetric dimethylarginine],-3.3,
CCCCCCCCCCCCCC(=O)O[C@H]1CC[C@@]2(C)C(=CC[C@H]3[C@@H]4CC[C@H]([C@H](C)CCCC(C)C)[C@@]4(C)CC[C@@H]32)C1 [Cholesterol myristate],-0.2,
CCCCCC/C(C=O)=C\c1ccccc1 [α-Hexylcinnamaldehyde],-0.2,
CC(C)[C@H](C)CC[C@@H](C)[C@H]1CC[C@H]2[C@@H]3CC=C4C[C@@H](O)CC[C@]4(C)[C@H]3CC[C@]12C [Campesterol],8.7,
N[C@@H](CS(=O)O)C(=O)O [L-Cysteinesulfinic acid],11.1,
COc1cc2oc(=O)cc(-c3ccccc3)c2cc1O [Dalbergin],0,
Cc1c(O)cc2c(c1O)C(=O)c1ccccc1C2=O [Rubiadin],0.3,
C=C1C(=O)[C@@]23[C@H](O)C[C@@H]4C(C)(C)C(=O)CC[C@@]4(C)[C@@H]2CC[C@@H]1[C@H]3O [Glaucocalyxin A],-9.7,
COc1cc2c(c(OC)c1OC)-c1c(cc(OC)c(OC)c1OC)C[C@H](C)[C@H](C)C2 [Schisandrin A],19.5,
CCCCCCCCCC=O [Decyl aldehyde],-0.7,
COc1ccc(C[C@H]2COC(=O)[C@]2(O)Cc2ccc(O[C@@H]3O[C@H](CO)[C@@H](O)[C@H](O)[C@H]3O)c(OC)c2)cc1OC [Tracheloside],-0.8,
Cc1ncc(C[n+]2csc(CCOP(=O)(O)OP(=O)(O)O)c2C)c(N)n1 [Thiamine pyrophosphate],-6,
CCOC(=O)/C=C/C(=O)OCC [Diethyl fumarate],0.5,
Cn1cnc2c(ncn2[C@@H]2O[C@H](CO)[C@@H](O)[C@H]2O)c1=O [1-Methylinosine],0.1,
C[C@H](O)[C@H](N)C(=O)O [L-Allothreonine],3.7,
CC(=O)OC(C)(C)CCC(=O)[C@](C)(O)[C@H]1[C@H](O)C[C@@]2(C)[C@@H]3CC=C4[C@@H](C[C@H](O)[C@@H](O)C4(C)C)[C@]3(C)C(=O)C[C@]12C [Cucurbitacin IIa],0.7,
CN(CC(=O)O)C(=N)N [Creatine],5.6,
CC(=O)Oc1ccccc1 [Phenyl acetate],-0.5,

SMILES,OC43 Inhibition rate [%],"OC43 Inhibition rate (OC43 Inhibition rate, 24 h) [%]"
O=C[C@H](O)[C@@H](O)[C@H](O)[C@H](O)CO[C@H]1O[C@H](CO[C@H]2O[C@H](CO)[C@H](O)[C@H](O)[C@H]2O)[C@H](O)[C@H](O)[C@H]1O [Manninotriose],-0.6,
[C-]#[N+]C(=C\c1ccc(OC)cc1)/C(=C/c1ccc(OC)cc1)[N+]#[C-] [Xanthocillin X permethyl ether],-4.3,
C[C@H](CCC(=O)NCCS(=O)(=O)O)[C@H]1CC[C@H]2[C@@H]3CC[C@@H]4C[C@H](O)CC[C@]4(C)[C@H]3C[C@H](O)[C@]12C [Taurodeoxycholate (sodium salt)],-0.1,
COC(=O)C1=CO[C@@H](C)[C@H]2CN3CC[C@]4(C(=O)Nc5ccccc54)[C@@H]3C[C@H]12 [Mitraphylline],1.7,
COc1ccc(/C=C/C(=O)CC(=O)/C=C/c2ccc(OC)c(OC)c2)cc1 [Di-O-methyldemethoxycurcumin],0.9,
C=C1[C@@H]2CC[C@H]3[C@]4(C)C[C@H](O[C@@H]5O[C@H](CO)[C@@H](OS(=O)(=O)O)[C@H](OS(=O)(=O)O)[C@H]5OC(=O)CC(C)C)CC(C(=O)O)(C(=O)O)[C@H]4CC[C@]3(C2)[C@H]1O [Carboxyatractyloside (dipotassium)],-0.1,
CC(C)=CCc1c2c(c(O)c3c1O[C@]14C(=C[C@@H]5C[C@@]1(C/C=C(/C)C(=O)O)C(C)(C)O[C@H]4C5=O)C3=O)C=CC(C)(C)O2 [Morellic acid],-4,
C[C@@H]1C[C@H]2OC(=O)[C@@]3(C)CCC[C@@](C)([C@@H]23)[C@@]1(O)CCc1ccoc1 [Marrubiin],0.3,
O=C1N[C@@H](Cc2cnc[nH]2)C(=O)N2CCC[C@@H]12 [Cyclo(his-pro) (TFA)],0.7,
Cn1cncc1C[C@H](NC(=O)CCN)C(=O)O [L-Anserine nitrate],,-3.8
O=c1c(O[C@@H]2O[C@H](CO)[C@H](O)[C@H](O)[C@H]2O)c(-c2ccc(O)c(O)c2)oc2cc(O)cc(O)c12 [Hyperoside],3,
CC(=O)/C=C/C1=C(C)CCCC1(C)C [β-Ionone],-0.1,
COc1cc([C@H]2OC[C@H]3[C@@H]2CO[C@@H]3c2ccc(O[C@@H]3O[C@H](CO)[C@@H](O)[C@H](O)[C@H]3O)c(OC)c2)ccc1O [Pinoresinol 4-O-β-D-glucopyranoside],3.4,
COC(=O)CC/C(C)=C/Cc1c(O)c2c(c(C)c1OC)COC2=O [Methyl mycophenolate],61.8,
OC[C@H]1O[C@@H](Oc2cc(/C=C/c3cc(O)cc(O)c3)ccc2O)[C@H](O)[C@@H](O)[C@@H]1O [Piceatannol 3'-O-glucoside],2,
C[C@@H]1C(=O)O[C@H]2[C@H](O)[C@@]34[C@H]5C[C@@H](C(C)(C)C)[C@]36[C@@H](OC(=O)[C@@H]6O)O[C@@]4(C(=O)O5)[C@@]12O [Ginkgolide B],-0.2,
CC1(C)CCC[C@]2(C)[C@H]3CCO[C@]3(C)CC[C@@H]12 [Ambroxide],-0.5,
O=C(O)CCc1cccc(O)c1 [3-(3-Hydroxyphenyl)propionic acid],-0.3,
COC(=O)CCc1ccccc1 [Methyl 3-phenylpropanoate],0,

# Two entries drawn at random from those above:
SMILES,OC43 Inhibition rate [%],"OC43 Inhibition rate (OC43 Inhibition rate, 24 h) [%]"
CC(=O)OC(C)(C)CCC(=O)[C@](C)(O)[C@H]1[C@H](O)C[C@@]2(C)[C@@H]3CC=C4[C@@H](C[C@H](O)[C@@H](O)C4(C)C)[C@]3(C)C(=O)C[C@]12C [Cucurbitacin IIa],0.7,
COc1ccc(/C=C/C(=O)CC(=O)/C=C/c2ccc(OC)c(OC)c2)cc1 [Di-O-methyldemethoxycurcumin],0.9,
